From paper PMC10163288
This is one part of the list.

B1: il10ra_site1_sap_18_mot_HHH_b1_01886_000000262_0001_1_18_H_._HHH_b2_01511_0001_0000100015_0000001_0_0001 (protein)
chain: SSSSSSDEEEEVEELVEQAEKIEDEEKVIRLLLRAVQLALRLSDPELLHLVWRVFKELSSSSSSS
B2: il10ra_site1_normal_mot_HHH_b1_06786_000000000_0001_1_20_H_._HHH_b2_07016_0001_0000100007_0000001_0 (protein)
chain: SSSSTEESQEVQKLLREAAQLRHKNPEEAEELAEEALRLAREAGNEVLEFSAERMLRALRSSSSS
B3: il10ra_site1_normal_mot_HHH_b2_06979_000000158_0001_42_57_H_._HHH_b1_06291_0001_0000100010_0000001_0 (protein)
chain: SSSSDLSQRIIELIRQAAELLRKGNPEEAEKVLEEAEELAEERNNELLLINVRFLLRDINSSSSS
B4: il10ra_site1_sap_16_mot_HHH_b2_00093_af2_000000025_0001_40_54_H_._HHH_b1_03751_0001_0001000047_0000001_0_0001_af2pred_0001 (protein)
chain: SSSSSEEERFYQLLLEALRLARRLNDEEVEEELRELLEEYKQKGDPRVEERIEELLKELRSSSSS
B5: il10ra_site1_sap_26_mot_HHH_b1_04771_000000013_0001_40_56_H_._HHH_b2_07490_af2_0001_0000100003_0000002_0_0001 (protein)
chain: SSSNKEVYERLAELVKEALERLVQAGDREEAERFFRIVENFLRSANNPEVLEELEELFERLSSSS
B6: il10ra_site1_normal_mot_HHH_b1_05672_af2_000000246_0001_1_19_H_._ems_3hC_444_af2_0001_0000400050_0000001_0 (protein)
chain: SSDLREEFSRVLIRAVRAAARHDEEKAEELVRRAEEIAEELGDEELERYVEIVKNFVESATRSSS
B7: il10ra_site1_normal_mot_HHH_b2_03434_000000017_0001_1_19_H_._HHH_b1_00041_0001_0000100004_0000002_0 (protein)
chain: SSSDEAYEVVRRAIEEASKLLRNGNPEEAQKVVEEAIEIVEELGNFVARFSLRHLLRVIRNSSSS
B8: il10ra_site1_normal_mot_05ca327611f5605f0dd8494b449afcbf_0001_1_000000248_0001_35_51_H_._HHH_b1_05043_0001_0000300012_0000001_1 (protein)
chain: SSSSSDENQELQRLLREVAELRNNGNPEEAQRLLREVLELAEELNNLTFQFAIRHLLRDLESSSS
B9: il10ra_site1_normal_mot_HHH_b2_07440_af2_000000021_0001_1_18_H_._HHH_b1_07881_0001_0000200007_0000001_0 (protein)
chain: SSSSDEEDEEVLELSKEAFRLALRGNPEEAREVLEQALELAREIGDERLVRVIEDLLRVDSSSSS
B10: il10ra_site1_normal_mot_HHH_b1_05056_000000217_0001_1_20_H_._HHH_b2_06556_0001_0000100001_0000002_0 (protein)
chain: SSSSSSTKEEVEELLEEAEEIEDPEERAEVLLRATHIALRHSDEEALQLVWKVVKRLGSSSSSSS
B11: il10ra_site1_sap_13_mot_0eddeacbb14b769e73e254714f31e2f9_0001_af2_000000203_0001_37_51_H_._61cd5d5803be15ec78ac877bda6c130b_0001_1_0001_0000300012_0000001_0_000 … (protein)
chain: SSSSDAHEIYELIREAAELLADGNPEEARRVLEEVLELAEEANNPVLLKNIRFLLKLIEDSSSSS
B12: il10ra_site1_normal_mot_HHH_b1_07380_000000129_0001_1_20_H_._HHH_b1_02231_0001_0000200026_0000001_0_af2pred_dldesign_0_af2pred (protein)
chain: SSSSSPTSERLVELITKAAELLGEGKPEEAKKVLDEARALAEAAGDEIFLRTVDYLLRHVESSSS
B13: il10ra_site1_sap_24_mot_HHH_b2_07006_000000108_0001_1_19_H_._HHH_b2_07019_0001_0000100023_0000001_0_0001 (protein)
chain: SSSSSDEEEILRLSVEAFRAALRGDKEEAEKLLERAEELAEEAGNERALEMIRNLLKSVRSSSSS
B14: il10ra_site1_sap_30_mot_HHH_b1_02809_af2_000000277_0001_40_57_H_._3c52c70cb82747e000e16ffcb2ba7c63_0001_af2_0001_0000500026_0000003_0_0001 (protein)
chain: SSSSTEADRVYRLIEEAMELSRKDPEEAEEVLEEAKRIAEELGNWVFRIQIEFLEKDIEKLSSSS
B15: il10ra_site1_normal_mot_HHH_b1_05185_000000011_0001_22_39_H_._HHH_b2_02890_0002_0000100007_0000002_0_af2pred_0001 (protein)
chain: SSSSSVAERAVEILLKAAKEIEDPEKVKLTLRDAKAAAKAANNEELERKIEEVERELEELLSSSS
B16: il10ra_site1_normal_mot_HHH_b2_00134_af2_000000004_0001_38_52_H_._HHH_b1_02048_af2_0001_0000100003_0000001_0 (protein)
chain: SSSSDLEEKARRLAEEIAEELGLSEEQERLLEKSAERQAKQGASEEAIELALRLQARSLKSSSSS
B17: il10ra_site1_sap_13_mot_HHH_b2_00230_000000227_0001_1_19_H_._HHH_b1_08620_af2_0001_0000100004_0000001_0_0001 (protein)
chain: SSSSDEELREVFELLERAAKLDSNGNPEEAKELLREAEKLVKEINNRLLLWQIEWILELLGSSSS
B18: il10ra_site1_sap_22_mot_HHH_b2_04001_000000102_0001_19_36_H_._HHH_b2_07017_af2_0001_0000900029_0000001_0_0001 (protein)
chain: SSSSDKEENEELLEELERLIEEGDRERALELAQEAIHILIQNSDPEALHLLWELVKEIAKISSSS

Target: il10ra, Q13651
Test: yeast display titration

Binder	apparent Kd
B1	inactive: no binding seen
B2	inactive: no binding seen
B3	inactive: no binding seen
B4	inactive: no binding seen
B5	inactive: no binding seen
B6	inactive: no binding seen
B7	inactive: > 1180 nM
B8	inactive: no binding seen
B9	inactive: no binding seen
B10	inactive: no binding seen
B11	inactive: no binding seen
B12	inactive: no binding seen
B13	inactive: no binding seen
B14	inactive: no binding seen
B15	inactive: no binding seen
B16	inactive: no binding seen
B17	inactive: no binding seen
B18	inactive: no binding seen

Reformatted: results already given.

| Binder | apparent Kd |
| --- | --- |
| B3 | inactive: no binding seen |
| B4 | inactive: no binding seen |
